Tested on: neuronal stem cell cultures
Assay: HPLC measurement of intracellular thiol and methylation metabolites in differentiating NSCs
Type: cell-based
Conditions: differentiating NSCs at 3 dpp
Description: Neuronal stem cell cultures were grown to confluence in stem cell-specific growth media as described in Example 2, and were then incubated with the indicated drugs for specific times. The medium was aspirated and the cells were washed twice with 1 mL of ice-cold HBSS. The HBSS was then aspirated and 0.6 mL of ice-cold dH2O was added to the cells and the cells scraped from the flask/dish. The cell suspension was sonicated for 15 s on ice and 100 μL of the sonicate was used to determine protein content. The remaining lysate was added to a microcentrifuge tube with an equal volume of 0.4 N perchloric acid, and incubated on ice for 5 min. […]
Concentrations of the following metabolites were measured: cysteine (CYS), cystine (CYS2), glutathione (GSH), glutathione disulfide (GSSG), homocysteine (HCY), homocystine
(HCY2), methionine (MET), S-adenosyl homocysteine (SAH), and S-adenosyl methionine (SAM). […] Sample concentrations were determined from the peak area for each metabolite using standard calibration curves and ESA software, and then normalised for protein concentration. […]
Results are expressed as the mean±standard error of the mean of direct counts of positive cells for each antibody from independent experiments done in triplicate or quadruplicate. […] In each culture, 25 predetermined visual fields were counted under a confocal microscope. […]

**Q.** Which results are given for `CN1CC[C@]23c4c5ccc(O)c4O[C@H]2[C@@H](O)C=C[C@H]3[C@H]1C5` [morphine, Morphine]?
**A.** GSH/GSSG ratio (FIG. 4): significantly increased; SAM/SAH ratio (FIG. 5): significantly decreased

Reference: patent publication US20190000128A1, “INFANT FORMULA COMPRISING HUMAN MILK PEPTIDES” (THE A2 MILK COMPANY LIMITED, priority 2015, published 2019)
